Measured values from patent publication US5635477A (The DuPont Merck Pharmaceutical Company, priority 1995, dated 1997).
For some assays here: Strings that start with PEPTIDE1 are HELM notation: dots part the residues, brackets hold end groups and non-standard residues.

Assays:
peptide synthesis = details: coupling step, TFA salt
[1] = general procedure: Boc solid-phase peptide synthesis; oxime resin; HBTU or TBTU with N-methylmorpholine; details: whole synthesis, TFA salt
[2] = general procedure: Boc solid-phase peptide synthesis; oxime resin (substitution level=0.96 mmol/g); HBTU or TBTU with N-methylmorpholine; details: for isolated yield / crude yield / crude mass: whole synthesis; for isolated yield: overall
[3] = late stage modification step, acetate salt
[4] = purification step, TFA salt, run 1
[5] = late stage modification step, TFA salt
[6] = protected cyclic peptide, TFA salt
[7] = protected cyclic peptide, scale 0.596 mmol, TFA salt

Substance: Boc-D-Val-NMeArg(Tos)-Gly-Asp(OcHex)-MAMB-Ox
- step yield (peptide synthesis): 86%

Substance: PEPTIDE1{G.[NMeArg].G.D.[Mamb]}$PEPTIDE1,PEPTIDE1,1:R1-5:R2$$$V2.0
- crude mass ([1]; scale 0.336 mmol): 218 mg
- step yield ([2]; purification step, TFA salt): 21% recovery
- isolated yield ([2]; TFA salt): 16.3%
- crude yield ([2]; scale 0.336 mmol, TFA salt): 84%

Substance: PEPTIDE1{[dV].[NMeArg].G.D.[Mamb]}$PEPTIDE1,PEPTIDE1,1:R1-5:R2$$$V2.0
- crude mass ([1]; scale 0.101 mmol): 49 mg
- step yield [2, 3]: 82%
- step yield ([2]; late stage modification step, on protected cyclic peptide, TFA salt): 70%
- step yield [2, 4]: 24% recovery
- step yield ([2]; purification step, TFA salt, run 2): approximately 40%
- isolated yield ([2]; TFA salt): 9.4%
- crude yield ([2]; scale 0.101 mmol, TFA salt): 60%

Substance: cyclo-(D-Abu-D-NMeArg-Gly-Asp-Mamb)
- step yield [2, 5]: 98.3%
- step yield ([2]; purification step, TFA salt): 2.3% recovery
- isolated yield ([2]; TFA salt): overall yield 0.99%
- crude yield [2, 6]: 50.8%
- crude mass [2, 7]: 241 mg

Substance: cyclo-(D-Abu-NMeArg-Gly-D-Asp-Mamb)
- step yield ([2]; purification step, TFA salt): 40.4% recovery
- isolated yield ([2]; TFA salt): overall yield 21.9%
- crude yield [2, 6]: 57.6%
- crude mass [2, 7]: 273 mg

Substance: cyclo-(D-Abu-di-NMeOrn-Gly-Asp-Mamb)
- step yield [2, 5]: 86%
- step yield ([2]; purification step, TFA salt): 49.3% recovery
- isolated yield ([2]; TFA salt): overall yield 14.2%
- crude yield [2, 6]: 39.3%
- crude mass ([2]; protected cyclic peptide, scale 0.498 mmol, TFA salt): 150 mg

Substance: cyclo-(D-Met-NMeArg-Gly-Asp-Mamb)
- step yield ([2]; late stage modification step, fluoride salt): 92.3%
- step yield ([2]; purification step, TFA salt): 13.2%
- isolated yield ([2]; TFA salt): 7.4%
- crude mass ([2]; scale 0.179 mmol, TFA salt): 105 mg
- crude yield ([2]; scale 0.179 mmol, TFA salt): 69.7%

Substance: cyclo-(D-Val-D-NMeArg-Gly-Asp-Mamb)
- crude mass ([1]; scale 0.596 mmol): 186 mg
- step yield ([2]; purification step, TFA salt): 14.8%
- isolated yield ([2]; TFA salt): 5.3%
- crude yield ([2]; scale 0.596 mmol, TFA salt): 38.6%

Substance: cyclo-(D-Val-NMeArg-Gly-Asp-4-aminomethylbenzoic acid) [87]
- step yield [2, 4]: 17.1% recovery
- isolated yield ([2]; TFA salt, run 1): overall yield 9.3%

Substance: cyclo-(D-Val-NMeArg-Gly-Asp-4-aminomethylbenzoic acid) [88]
- step yield [2, 4]: 13.4% recovery
- isolated yield ([2]; TFA salt, run 1): overall yield 7.3%

Substance: cyclo-(D-Val-NMeArg-Gly-Asp-NMeMamb)
- crude mass ([1]; protected cyclic peptide, scale 0.456 mmol): 406 mg
- step yield [2, 5]: 93.5%
- step yield ([2]; purification step, TFA salt): 34.2% recovery
- isolated yield ([2]; TFA salt): overall yield 29.9%

Substance: cyclo-(D-Val-NMeArg-Gly-Asp-aminomethylnaphthoic acid)
- step yield ([2]; purification step, TFA salt): 12.1% recovery
- isolated yield ([2]; TFA salt): overall yield 7.8%
- crude yield [2, 6]: 73.1%
- crude mass ([2]; protected cyclic peptide, scale 0.737 mmol, TFA salt): 463 mg

Substance: cyclo-(D-Val-NMeArg-Gly-B-MeAsp-Mamb) [Example 64/64a isomer #1]
- step yield [2, 4]: 12.7%
- isolated yield ([2]; TFA salt, run 1): 4.8%

Substance: cyclo-(D-Val-NMeArg-Gly-B-MeAsp-Mamb) [Example 64/64a isomer #2]
- step yield [2, 4]: 13.9%
- isolated yield ([2]; TFA salt, run 1): 5.3%

Substance: cyclo-(Pro-NMeArg-Gly-Asp-Mamb)
- step yield [2, 3]: 79%
- step yield ([2]; purification step, TFA salt): 5.8%
- isolated yield ([2]; TFA salt): 2.1%
- crude mass ([2]; scale 0.43 mmol, TFA salt): 170 mg
- crude yield ([2]; scale 0.43 mmol, TFA salt): 48.8%
